About 7,700 (2.3%) of roughly 330,000 compounds were called active. Inconclusive means that the source gave no clear call. Such entries were picked first, then a sample of the others. Calls follow the shape of the dose curve; as a rule, active = well fitted inhibition curve with a large enough effect; inconclusive = small, poorly fitted or top-dose-only effect, or effect the other way; inactive = flat fitted curve, though single readings scatter. A potency beside an inconclusive call is a rough fit, not a confirmed value.
Test: qHTS screen for small molecules that inhibit ELG1-dependent DNA repair in human embryonic kidney (HEK293T) cells expressing luciferase-tagged ELG1; also: nearly all actives have a fitted effect of over 55% in size
Conditions: HEK293T ELG1-luciferase reporter, luminescence, 16 h, DNA damage induced by 5-fluorouridine; series mostly up to 46.1 µM
Method in brief: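 DMSO vehicle served as the neutral condition. Each well held 2,000 cells given 5-fluorouridine plus compound; after 16 hr at 37 °C/5% CO2, ONE-Glo was added and luciferase measured 30 min later.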
Potency is read from the fitted curve at half-maximal effect.

SMILES	Potency
COc1ccc(-c2cc(-c3ccc(F)cc3)nc(N3CCN(C)CC3)n2)cc1	inconclusive: 4.11 µM [inhibitor, single point]
CCOC(=O)N1CCC(Nc2ncnc3c2cnn3-c2ccc(C)cc2C)CC1	inconclusive: 6.51 µM [inhibitor, partial curve, poor fit]
Cc1cc(C)n2ncc(/C(N)=N/OC(=O)Nc3ccccc3)c2n1	inconclusive: 29.1 µM [inhibitor, single point]
Cc1cnc(C(=O)N2CCN(S(=O)(=O)c3cccc(Br)c3)CC2)cn1	inactive
COc1ccc(NC(=O)COC(=O)Cn2cnc3ccccc32)cc1	inactive
CCCCNC(=O)CSc1cc(=O)n(C)c2ccccc12	inconclusive: 18.4 µM [activator, single point]
CC1Cc2ccccc2N1C(=O)CN1CCC(C(N)=O)CC1 (centres undefined)	inactive
OC(c1ccccc1)(c1ccccc1)C1CCN(C(=S)NCCc2ccccc2)CC1	inconclusive: 18.3 µM [inhibitor, single point]
CCn1c(Cc2ccccc2)nnc1SCC(=O)Nc1ccc2c(c1)OCO2	inactive
CC(C)c1nc(SCC(=O)Nc2ccc3c(c2)OCCO3)n[nH]1	inconclusive: 29.1 µM [activator, single point]
CCn1ccc(C(=O)Nc2ccc(S(=O)(=O)Nc3ccccc3OC)cc2)n1	inconclusive: 29.1 µM [inhibitor, single point]
CCOc1cccc(C(=O)Nc2ccc3oc(Cc4ccc(Cl)cc4)nc3c2)c1	active: 18.4 µM
Cc1ccc(Cn2ncc(Cl)c(Cl)c2=O)cc1	inconclusive: 29.1 µM [inhibitor, single point]
CC(=O)c1cc(Cl)ccc1OCc1cccc(S(=O)(=O)N2CCOCC2)c1	inconclusive: 25.9 µM [inhibitor, single point]
O=C(c1ccc(Cl)cc1)N1CCc2ccccc21	inactive
O=C(CSc1nnc(NC2CC2)s1)NN1C(=O)NC2(CCCCC2)C1=O	inactive
COc1ccc(N(C(=O)c2snc(C(N)=O)c2N)C(C(=O)NCc2ccc(F)cc2)c2ccc(O)cc2)cc1 (centres undefined)	inconclusive: 29.1 µM [inhibitor, single point]
CCCn1c(N)c(N2CCCCC2)c(=O)n(CC(=O)Nc2ccc(C(C)=O)cc2)c1=O	inactive
Cc1ccn2cc(CCNC(=O)C3CCCCC3)nc2c1	inactive
C=CCNc1nc2ccccc2nc1NS(=O)(=O)c1cccc(C)c1	inconclusive: 32.6 µM [inhibitor, partial curve, poor fit]
C/C(=C\c1cccc(Br)c1)C(=O)c1c(C)cc(C)[nH]c1=O	inconclusive: 13 µM [inhibitor, partial curve, poor fit]
O=C(NCc1ccco1)c1ccc2c(c1)N(Cc1ccc(Cl)cc1)CCS2	inconclusive: 29.1 µM [inhibitor, single point]
Clc1nnc(N2CCCCC2)c2ccccc12	inconclusive: 18.3 µM [activator, single point]
COc1ccc(NC(=O)Cn2nnc3ccccc32)c([N+](=O)[O-])c1	inactive
CCOC(=O)c1cc(C)sc1/N=C/C1C(=O)CCCC1=O	inactive

SMILES	Potency
CC(=O)Nc1ccc(/C=N/NC(=O)c2cc3cc(C)ccc3nc2C)cc1	inconclusive: 18.4 µM [activator, single point]
COc1ccc(/C=C/C(=O)Nc2nonc2NC(C)=O)cc1	inconclusive: 18.4 µM [activator, partial curve]
Cc1ccc(NC(=O)CSCC(=O)NC2(C)CCS(=O)(=O)C2)cc1 (centres undefined)	inactive
O=C(CCn1c(=S)oc2ccccc21)NCCC1=CCCCC1	inconclusive: 29.1 µM [activator, single point]
COc1ccc(NC(=O)COC(=O)CC2Sc3ccccc3NC2=O)cc1 (centres undefined)	inconclusive: 29.1 µM [activator, single point]
O=C(COc1ccc(C(=S)N2CCOCC2)cc1)N1CCCC1	inconclusive: 29.1 µM [inhibitor, partial curve, poor fit]
COc1ccc(-c2cc(C(F)(F)F)nc(SCCC(=O)NCc3ccco3)n2)cc1	inconclusive: 7.31 µM [inhibitor, partial curve]
O=C(C1CC1)N1c2ccccc2Sc2ccccc21	inconclusive: 35.5 µM [inhibitor, single point]
Cc1cccc(C#Cc2ccccc2)n1	inconclusive: 11.2 µM [activator, partial curve]
CC(C)CCN1CCNC(=O)C1CC(=O)NCCCN1CCOCC1 (centres undefined)	inconclusive: 29.1 µM [activator, partial curve, poor fit]
S=C(Nc1ccccc1)N1N=CCC1c1ccccc1 (centres undefined)	inconclusive: 14.6 µM [activator, partial curve]
c1ccc(-c2nnc(-c3ccccn3)s2)nc1	inconclusive: 1.83 µM [activator, partial curve, poor fit]
Nc1ccc(C(=O)OCC(=O)N2CCOCC2)cc1[N+](=O)[O-]	inconclusive: 20.6 µM [activator, partial curve]
COc1cc(Nc2c3c(nc4ccccc24)CCC3)cc(OC)c1OC	inactive
CCN(CC)CCOc1ccc2nc(N(C)C)sc2c1	inactive
COc1ccc(C(=O)NC(=S)Nc2ccc3[nH]c(=O)[nH]c3c2)c(OC)c1	inconclusive: 7.3 µM [activator, partial curve, poor fit]
COc1ccc(-c2nc(NC(=O)C3CCN(c4nc5ccccc5o4)CC3)sc2C)cc1	active: 11.6 µM
COc1ccc(NS(=O)(=O)c2cc3c(cc2C)N(C(C)=O)CCO3)c(OC)c1	inconclusive: 20.6 µM [activator, single point]
Cc1cccc(OCC(=O)NCc2ccccc2)c1	inactive
Cc1ccc(SCc2[nH]nc3c2C2(C(=O)N(C)c4ccccc42)C(C#N)=C(N)O3)cc1 (centres undefined)	inconclusive: 18.4 µM [inhibitor, single point]
O=C(Nc1cccc(S(=O)(=O)NC2=NCCCCC2)c1)c1cccnc1Cl	inactive
Cc1ccc(OCC(=O)Nc2ccc(Cl)cc2)c([N+](=O)[O-])n1	inconclusive: 7.3 µM [activator, partial curve]
S=C(Nc1ccccc1Cl)N(CCCN1CCOCC1)Cc1ccco1	inactive
O=C(NN1C(=O)/C(=C/c2cccs2)SC1=S)c1ccncc1	active: 4.11 µM
CC1CCCC(NCC(O)COC(c2ccc(F)cc2)c2ccc(F)cc2)C1C (centres undefined)	inactive

Look-ups from the list.
For Potency, Cc1ccc(SCc2[nH]nc3c2C2(C(=O)N(C)c4ccccc42)C(C#N)=C(N)O3)cc1 (centres undefined) has inconclusive: 18.4 µM [inhibitor, single point]
For Potency, COc1ccc(NS(=O)(=O)c2cc3c(cc2C)N(C(C)=O)CCO3)c(OC)c1 has inconclusive: 20.6 µM [activator, single point]

Next entries.

SMILES	Potency
O=C(Nc1ccc(Br)cc1)c1ccco1	inconclusive: 10.3 µM [activator, partial curve]
C=CCN(CC=C)S(=O)(=O)c1ccc(C(=O)Nc2nnc(COC)o2)cc1	inconclusive: 18.3 µM [inhibitor, single point]
Nc1[nH]nc2nc(N3CCOCC3)nc(-c3ccccc3)c12	inconclusive: 20.6 µM [inhibitor, partial curve]
COc1ccccc1N1CC(C(=O)Nc2nnc(SCC(=O)NCC3CCCO3)s2)CC1=O (centres undefined)	inactive
Cc1cccc(NC(=O)c2nc[nH]c2C(=O)NCc2ccccc2)c1	inactive
N#Cc1ccc2[nH]cc(CCO)c2c1	inactive
Cc1nn(-c2ccccc2)c(N)c1C(c1ccc(C(C)C)cc1)c1c(C)nn(-c2ccccc2)c1N	active: 8.2 µM
COc1ccc2oc(-c3ccc(C)c(NC(=O)CSc4ccc(Cl)cc4)c3)nc2c1	inconclusive: 29.1 µM [activator, single point]
S=c1[nH]nc(-c2ccc3ccccc3n2)o1	inconclusive: 29.1 µM [activator, single point]
CCCn1c(NC(=O)CCNC(=O)c2ccccc2Cl)nc2ccccc21	active: 20.6 µM
CCCc1nc(Nc2nc3ccccc3o2)nc(C)c1C(=O)OCC	inconclusive: 2.06 µM [activator, partial curve]
COC(=O)c1[nH]c2ccccc2c1NC(=O)CN1CCCc2ccccc21	inconclusive: 20.6 µM [inhibitor, partial curve]
COCC(=O)N1CCC(Oc2ccc(C(=O)N3C[C@@H]4CCC[C@H]3C4)cc2)CC1	inactive
O=C(CNC(=O)c1cccs1)c1ccc([N+](=O)[O-])cc1	inconclusive: 14.6 µM [activator, partial curve]
CC(=O)N(c1nnc(-c2ccc(C)cc2)s1)C1CCCC1	inconclusive: 11.6 µM [activator, partial curve]
CCOC(=O)N1CCN(C(=O)CNC2CCCCCCC2)CC1	inactive
COc1ccccc1CNC(=O)c1ccc(NC2=NC3CS(=O)(=O)CC3S2)cc1 (centres undefined)	inactive
Cc1cc(C#N)c(C)c(SCc2[nH]nc3c2C(c2ccccc2)C(C#N)=C(N)O3)n1 (centres undefined)	inconclusive: 6.51 µM [activator, partial curve]
O=C(NCc1ccccc1)c1ccc(CS(=O)(=O)Cc2ccccc2F)o1	inconclusive: 29.1 µM [inhibitor, single point]
CCC/C(O)=C1\C(=O)CCCC1=NCCc1c(C)[nH]c2ccc(C)cc12	inconclusive: 18.3 µM [inhibitor, partial curve, poor fit]
CCC1(CC)NC(=O)N(CC(=O)OCC(=O)Nc2cc(OC)ccc2OC)C1=O	inactive
O=C(NC(=S)Nc1ccccc1C(F)(F)F)c1ccccc1F	inactive
Cc1ccc(SCC(=O)NCC2CCCO2)cc1 (centres undefined)	inconclusive: 23.1 µM [activator, single point]
CCCCCCc1cc2cc(C(=O)OCC)c(=O)oc2cc1O	inactive

Molecules from the list above containing a nitro group on carbon, in the order listed:
SMILES	Potency
COc1ccc(NC(=O)Cn2nnc3ccccc32)c([N+](=O)[O-])c1	inactive
Nc1ccc(C(=O)OCC(=O)N2CCOCC2)cc1[N+](=O)[O-]	inconclusive: 20.6 µM [activator, partial curve]
Cc1ccc(OCC(=O)Nc2ccc(Cl)cc2)c([N+](=O)[O-])n1	inconclusive: 7.3 µM [activator, partial curve]
O=C(CNC(=O)c1cccs1)c1ccc([N+](=O)[O-])cc1	inconclusive: 14.6 µM [activator, partial curve]
